In all, about 2,200 compounds went through this assay and about 15 (0.7%) were called active.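 How the source made its calls: active means fitted half-maximal concentration for loss of luminescence signal no more than a set limit of log units above the top tested concentration; inconclusive means flat fit with 30 to 70% signal loss, or invalid fit; inactive means half-maximal concentration above that set limit.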 The list shows a part of the results.
Assay: inhibitors of ADP-Glo detection reagents, dose response, artefact control for GSK3beta inhibitor project, biochemical, luminescence, cell-free, homogeneous (AID 434947);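 further: kinase-free counter screen of ADP-Glo detection reagents for GSK3beta hits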
Conditions: 5 uM ADP

EC50, inactive:
CN1CCN(C(=O)Cn2ncc3c([nH]c4ccccc43)c2=O)CC1 > 11 µM, CC(C)(C)C(=O)c1cnc(Nc2ccccc2)s1 > 30 µM, CCOC(=O)CC(=O)CSc1ccc2nnc(-c3ccccc3)n2n1 > 30 µM, c1cncc(CNc2nc(-c3cccnc3)nc3ccccc23)c1 > 30 µM, O=C(COc1ccccc1[N+](=O)[O-])N/N=C/c1ccncc1 > 30 µM, Cc1nn(C)c(C)c1S(=O)(=O)N(CC(=O)Nc1nccs1)c1ccc(C(C)C)cc1 > 30 µM, CCCCn1nc(NC(=O)CC)c2cc3cc(OC)ccc3nc21 > 30 µM, O=C(NCc1ccncc1)C1CCC(=O)N(CCc2ccc(Cl)cc2)C1 (stereo not drawn) > 30 µM, COc1ccc(Nc2nc(N)c([N+](=O)[O-])c(NC3CCCCC3)n2)cc1 > 30 µM, CC(=O)N1CCc2c(sc(NC(=O)CCS(=O)(=O)c3ccc(C)cc3)c2C(N)=O)C1 > 30 µM, NC(=O)c1c(NC(=O)c2ccncc2)sc2c1CCCC2 > 30 µM, CC(C)CCNc1nc(N)c([N+](=O)[O-])c(NCCO)n1 > 30 µM, O=c1cc(-c2ccccc2Cl)oc2c(NS(=O)(=O)c3ccccc3C(F)(F)F)ccc(O)c12 > 30 µM, CC(C)C1Cc2c(sc3c2c(=O)n(-c2ccccc2)c2n[nH]c(=S)n32)CO1 (stereo not drawn) > 30 µM, O=C(Oc1ccc(F)c(F)c1)c1ccc2c(=O)n3c(nc2c1)CCC3 > 30 µM, COc1ccc(OC)c(C(O)c2coc3ccc(O)c(CN(C)C)c23)c1 (stereo not drawn) > 30 µM, CCn1c(/C=C/N(C)c2ccccc2)[n+](CC)c2ccc(Cl)cc21 > 30 µM, COc1ccc(C(=O)c2coc3ccc(OC(C)=O)cc23)cc1 > 30 µM, CCOc1cc(C)cc2oc(=O)cc(-c3ccccc3)c12 > 30 µM, Nc1nc(NCC2CCCO2)nc(Nc2ccc(Cl)cc2)c1[N+](=O)[O-] (stereo not drawn) > 30 µM, Cc1ccc(N2CSC3=C(C#N)C(c4cccs4)CC(=O)N3C2)cc1 (stereo not drawn) > 30 µM, COCCCNC(=O)c1ccc(CS(=O)(=O)c2ccc(OC)cc2)o1 > 30 µM, Cc1ccc(S(=O)(=O)CCSc2n[nH]c(=O)n2-c2ccc3c(c2)OCCO3)cc1 > 30 µM, COC1=CC(=O)CC(C)C12Oc1cc(OC)cc(OC)c1C2=O (stereo not drawn) > 30 µM, COc1ccc(-c2nn(-c3ccccc3)cc2/C=N/Nc2ccccn2)cc1 > 30 µM, Cc1c(C(=O)O)sc2c1c(=O)n(Cc1ccccc1)c(=O)n2C > 30 µM, CC(C)N1CCc2c(sc(NC(=O)CN3C(=O)c4ccccc4C3=O)c2C(N)=O)C1 > 30 µM, O=C(OCCCOC(=O)c1cc[n+]([O-])cc1)c1cc[n+]([O-])cc1 > 30 µM, N#C/C(=C/c1cn[nH]c1-c1ccc(Br)cc1)C(=O)O > 30 µM, COc1cccc(C(=O)NCC(c2ccco2)N2CCc3ccccc3C2)c1 (stereo not drawn) > 30 µM, CCN(CC)C(=O)CSc1nc(N)c(C#N)c(-c2cccs2)c1C#N > 30 µM, O=Cc1cn(-c2ccccc2)nc1-c1ccccc1 > 30 µM, O=C(c1cc(COc2ccc(F)cc2F)on1)N1CCCC(c2ccccc2)C1 (stereo not drawn) > 30 µM, CC1(C)CC(=O)C=C(NCc2ccccc2)C1 > 30 µM, COc1ccc(C(=O)c2sc(Nc3ccccc3)nc2N)cc1OC > 30 µM, CC1CCCC(NC(=O)C2CCN(C(=O)Nc3ccccc3)CC2)C1C (stereo not drawn) > 30 µM, Cc1cc2cc(CN(CCCN3CCOCC3)C(=O)NC3CCCCC3)c(=O)[nH]c2cc1C > 30 µM, CCOC(=O)c1cnc2c(OC)cccc2c1N1CCN(c2ccc(OC)cc2)CC1 > 30 µM, NS(=O)(=O)c1ccc(N=Nc2c[nH]c(=O)c(O)c2)cc1 > 30 µM, CCN1CCc2c(sc(NC(=O)CN3C(=O)c4ccccc4C3=O)c2C(N)=O)C1 > 30 µM, Cc1ccnc(NC(=O)c2ccc([N+](=O)[O-])o2)c1 > 30 µM, CSc1nc(SCC(=O)NCC2CCCO2)c2c3c(sc2n1)CN(C)CC3 (stereo not drawn) > 30 µM, CC1(C)CC(=O)C=C(Nc2cc(-c3ccccc3)[nH]n2)C1 > 30 µM, O=C(O/N=C\c1ccc(N2CCCCC2)c([N+](=O)[O-])c1)c1c(F)cccc1F > 30 µM, O=c1c2c3c(sc2nc2n1N=C(c1cccs1)CS2)CCCC3 > 30 µM, CCOC(=O)C1=C(C)Nc2ncnn2C1c1ccccc1F (stereo not drawn) > 30 µM, CNc1nc(N)c([N+](=O)[O-])c(NC2CCCCC2)n1 > 30 µM, CC(=O)N1CCc2c(sc(NC(=O)CN3C(=O)CCC3=O)c2C(N)=O)C1 > 30 µM, COCCOC(=O)c1c(C)oc2ccc(OC(=O)c3cccs3)cc12 > 30 µM, Cn1nnnc1Sc1c(Cl)cccc1[N+](=O)[O-] > 30 µM, COc1ccc(OCCCC(=O)NCc2ccco2)cc1 > 30 µM, O=C(O)c1ccccc1NC(=O)c1ccccc1Nc1ccccc1 > 30 µM, CC(CC(=O)Nc1ccc(F)c([N+](=O)[O-])c1)c1ccccc1 (stereo not drawn) > 30 µM, Cc1ncsc1CCSc1nc2ccccc2c(=O)n1C > 30 µM, Cc1c(O)c(CN2CCCCC2)cc2c1oc(=O)c1ccccc12 > 30 µM, O=C(N/N=C/c1ccco1)c1ccn[nH]1 > 30 µM, O=C(C[n+]1ccc(/C=C/c2ccccc2)cc1)c1ccc2c(c1)OCCO2 > 30 µM, Cc1ccc(NC(=S)NC2CC3CCC(C2)N3Cc2ccco2)c(C)c1 (stereo not drawn) > 30 µM, COc1cc(-c2cc(=O)c3c(O)c(OC)c(OC)c(O)c3o2)ccc1O > 30 µM, Cc1cc(CNC(=O)C(C)n2cc([N+](=O)[O-])cn2)c2ccccc2n1 (stereo not drawn) > 30 µM, COc1ccc(CC(=O)Nc2ncc([N+](=O)[O-])s2)cc1OC > 30 µM, NC(=O)c1ccc(Oc2ccc(Cl)c3ccccc23)c([N+](=O)[O-])c1 > 30 µM, CCOC(=O)c1c(C)[nH]c(C)c1C(=O)COC(=O)CNC(=O)c1ccc(OCC)cc1 > 30 µM, O=C(CSc1ncnc2c1cnn2-c1ccc(F)cc1)NCC1CCCO1 (stereo not drawn) > 30 µM, O=C(N/N=C\c1ccco1)Nc1cccc(Cl)c1 > 30 µM, Cc1ccc(OCC(=O)N/N=C2/SCC(=O)N2Cc2ccccc2)cc1 > 30 µM, COCc1c(C(=O)Nc2ccc(Cl)cc2F)oc2ccccc12 > 30 µM, Nn1c(-c2cccs2)nc2sc3c(c2c1=O)CCCC3 > 30 µM, COc1ccccc1-n1c(-c2ccco2)n[nH]c1=S > 30 µM, O=C(Nc1ccccc1)ON=C1c2ccccc2-c2ccccc21 > 30 µM, COC(CSc1nc(N)c2c3c(sc2n1)CN(C)CC3)OC > 30 µM, O/N=C/c1cn(-c2ccccc2)nc1-c1cccnc1 > 30 µM, O=C(Nc1nc2ccc(Cl)cc2s1)C1CC1 > 30 µM, CCC(=O)Nc1nn(CC(C)C)c2nc3ccc(C)cc3cc12 > 30 µM, c1ccc(-c2nc(NCCCn3ccnc3)c3oc4ccccc4c3n2)cc1 > 30 µM, CC(Cl)C(=O)Nc1ncc(C(F)(F)F)cc1Cl (stereo not drawn) > 30 µM, COc1ccc(C(=O)c2sc(Nc3ccccc3)nc2N)cc1 > 30 µM, O=C(Nc1ccccc1Cl)N1CCSc2ccccc21 > 30 µM, C=CCN=C(NC#N)SCC(=O)NC(C)(C)C > 30 µM, CC1CCN(C(=O)CSc2nc(N)c3c4c(sc3n2)CN(C)CC4)CC1 > 30 µM, Nc1ncnc2c1ncn2[C@@H]1O[C@H](CO)[C@@H](O)[C@H]1O > 30 µM, N#Cc1c(N)nc(-c2ccccc2)nc1-c1ccccc1 > 30 µM, CCCN(CCC)Cc1c(C(=O)N/N=C/c2ccc(Br)cc2)nnn1-c1nonc1N > 30 µM, NC(=O)C1CCN(C(=O)c2ccc(Oc3cc(Cl)cc(Cl)c3)o2)CC1 > 30 µM, CC/C(=N\NC(=S)Nc1cccc(C)c1)c1ccccc1 > 30 µM, CC(=O)N1CCc2c(sc(NC(=O)C3COc4ccccc4O3)c2C(N)=O)C1 (stereo not drawn) > 30 µM, Cc1ccnc(SCCn2c(N3CCOCC3)nc3c2c(=O)[nH]c(=O)n3C)n1 > 30 µM, Nc1nc(NCc2ccco2)nc(Nc2cccc(F)c2)c1[N+](=O)[O-] > 30 µM, Cn1nc2c3ccccc3n(Cc3ccc(F)cc3)c2nc1=S > 30 µM, O=C(Nc1ncc(Cc2ccccc2)s1)C1CCCO1 (stereo not drawn) > 30 µM, Oc1cccc(Nc2nc(-c3ccccc3)nc3ccccc23)c1 > 30 µM, CC(C(=O)NC1CCCCCC1)n1cc([N+](=O)[O-])cn1 (stereo not drawn) > 30 µM, O=C1CC(SC(=Nc2ccccc2)Nc2ccccc2)C(=O)N1c1cccc2ccccc12 (stereo not drawn) > 30 µM
